# Laboratory results published in PubChem BioAssay AID493014 (National Center for Advancing Translational Sciences (NCATS), 2011).
# Some of the results follow. Further columns of the screen follow, without active or inactive calls. Compounds called inactive in the main read-out are mostly missing here. The note in brackets gives the kind of curve behind each potency; many fits are weak.
# Assay: qHTS Assay to Find Inhibitors of Chronic Active B-Cell Receptor Signaling
# Conditions: ABC-DLBCL IkBa-CBG/CBR reporter, luminescence ratio (green luciferase fused to IkBa over red control in TMD8 lymphoma cells), 4 h
# In short: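 Cell line TMD8 (human ABC DLBCL), stably expressing tet-inducible CBG68-IkBa fusion and CBR; IMDM/0.5% FBS; cpd up to 46 uM; dox induction, 4 h, 37C/5% CO2; dual luminescence; green/red ratio; MG132 control.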
# [1] = measured here: CBR red luminescence, cell number
# [2] = measured here: IkBa-CBG green luminescence
Compound,AC50 [1],AC50 [2]
O=C(Nc1nccs1)C(Br)C(Br)c1ccccc1 (configuration not stated),"14.1 µM [falling, partial curve]",–
Cc1ccc(C(=O)N(C)c2nnc(-c3ccncc3)s2)cc1,"3.55 µM [rising, partial curve, poor fit]",–
O=[N+]([O-])c1ccccc1S(=O)(=O)c1ccccc1[N+](=O)[O-],"35.5 µM [rising, single point]",–
Cc1ccccc1/C(N)=N/OC(=O)/C=C/c1ccccc1,"29.1 µM [falling, single point]",–
CCCNC(=O)c1ccc2c(=O)c(O)c(-c3ccc(Cl)c([N+](=O)[O-])c3)[nH]c2c1,"2.82 µM [rising, partial curve, poor fit]",–
O=C1NC[C@@H](c2ccccc2)OC(=O)[C@H](Cc2ccc(F)cc2)C/C=C\C[C@@H]1CC(=O)N(CCO)Cc1ccccc1,"18.4 µM [falling, single point]",–
COc1ccccc1CN=Cc1[nH]c2ccc(Br)c(Cl)c2c1O,"25.9 µM [falling, single point]",–
COc1ccc(C(CC(=O)Nc2ccccc2OC)n2cccc2)cc1 (configuration not stated),"1.64 µM [falling, full curve]",–
O=C(NC1CCCCC1)c1cc(Nc2cccc(C(F)(F)F)c2)nc2ccccc12,"0.355 µM [falling, full curve, poor fit]",–
Clc1ccccc1-c1nn2c(-c3ccncc3)nnc2s1,"29.1 µM [rising, single point]",–
COc1ccc2oc(C(=O)N3CCN(C/C=C/c4ccccc4)CC3)c(C)c2c1,"20.6 µM [falling, single point]",–
O=c1ccc(-c2nc3ccccc3n2Cc2ccc(Cl)cc2)c[nH]1,"35.5 µM [falling, single point]",–
Cc1cc(C)c2c(N)c(C(=O)NNC(=O)c3ccccc3)sc2n1,"10 µM [falling, partial curve]",–
CN(Cc1cccc(C(F)(F)F)c1)C(=O)C1CCC(=O)N(CC2CCCCC2)C1 (configuration not stated),"35.5 µM [falling, single point]",–
Cc1cc(N2CCCCC2)nc2ccc(NC(=O)c3ccc(Br)o3)cc12,"23.1 µM [falling, single point]",–
C=CCn1c(CSc2nc3ccccc3s2)nnc1SCC(=O)NCc1ccccc1,"18.4 µM [falling, partial curve, poor fit]",–
COc1ccc(/C=C/C(=O)Nc2cc(C(F)(F)F)ccc2Cl)cc1OC,"6.51 µM [rising, single point]",–
Cc1ccc(S(=O)(=O)N2CCN(CC(=O)N/N=C/c3ccc(Br)s3)CC2)cc1,"2.91 µM [falling, single point]",–
Cc1ccc(-c2nc3ccccc3s2)cc1NC(=S)NC(=O)c1cccc2ccccc12,"5.17 µM [rising, partial curve, poor fit]",–
Cn1nc(C(=O)NNC(=O)c2ccc(Cl)cc2)ccc1=O,"14.6 µM [falling, partial curve, poor fit]",–
COc1ccc(CN(C)C(=O)c2ccc(OCC(=O)N3CCOCC3)c(OC)c2)cc1,"0.092 µM [rising, full curve, poor fit]",–
CCOC(=O)c1c(N)n(-c2cccc(OC)c2)c2nc3ccccc3nc12,"6.31 µM [rising, single point]",–

Compound,AC50 [1],AC50 [2]
O=[N+]([O-])c1cccc(NC(=S)NCCc2ccccc2)c1,"32.6 µM [falling, single point]",–
CCNc1nc(NC(C)C)nc(OCC)n1,"32.6 µM [rising, single point]",–
CCOC(=O)Nc1ccc(S(=O)(=O)N(C)C(C)C)cc1,"29.1 µM [rising, single point]",–
Cn1c(N)c(C(=O)COC(=O)CCC2CCCCC2)c(=O)n(C)c1=O,–,"17.8 µM [rising, partial curve, poor fit]"
C/C(=N\NC(=O)c1c(-c2ccccc2Cl)noc1C)c1cccc(NC(=O)C(C)C)c1,"1.3 µM [rising, partial curve, poor fit]",–
Oc1ccc(-c2nc3ccccn3c2NCc2ccco2)cc1,"0.398 µM [falling, full curve, poor fit]",–
Cc1nc(SCc2cccc(F)c2)[nH]c(=O)c1C#N,"11.2 µM [falling, single point]",–
C=CCNc1nc(Nc2ccc(OC)cc2OC)nc(OCC)n1,"0.447 µM [rising, full curve, poor fit]",–
Cc1ccccc1CN(C)C(C)C(=O)Nc1ccccc1F (configuration not stated),"14.1 µM [rising, single point]",–
COc1cc(NC(=O)CSc2nnc(NC(C)C)s2)cc(OC)c1OC,"2.82 µM [rising, full curve]",–
C/C(=N\NC(=O)c1ccc2c(c1)OCO2)c1ccc(NC(=O)CCCC(=O)O)cc1,"1.78 µM [falling, full curve]",–
Cc1ccccc1C(=O)Nc1nc2n(n1)C(c1ccccc1)CC(=O)N2 (configuration not stated),"29.1 µM [falling, single point]",–
Cc1ccc(N2N=C(C(=O)O)CCC2=O)cc1Cl,"3.55 µM [falling, single point]",–
O=C(Nc1ccc(Cl)cc1)c1cccc(N2C(=O)C3C4CCC(C4)C3C2=O)c1 (configuration not stated),"25.9 µM [falling, partial curve]",–
O=C(Nc1ccc(Cl)cn1)c1cccc(OCc2ccccc2)c1,–,"17.8 µM [falling, partial curve, poor fit]"
Cc1nc(C)c(C(=O)N(c2ccc(C)c(C)c2)C(C(=O)NCc2ccco2)c2ccccc2)s1 (configuration not stated),"18.4 µM [falling, single point]",–
O=C1c2ccccc2C(=O)C12OC2c1ccc(Cl)cc1Cl (configuration not stated),"7.31 µM [falling, partial curve]",–
Cc1ccc(/C=C/c2ccc(=O)n(Cc3ccccc3Cl)n2)cc1,"29.1 µM [falling, single point]",–
O=C(Nc1c(C(=O)N2CCOCC2)oc2ccccc12)c1cccc([N+](=O)[O-])c1,"12.6 µM [rising, partial curve, poor fit]",–
Cc1ccccc1-c1nc(C#N)c(N2CCC(C)CC2)o1,"15.8 µM [rising, partial curve, poor fit]",–
Cc1cc2c3c(c1)C(C)CC(C)(C)N3C(=O)C2=O (configuration not stated),"17.8 µM [rising, single point]","22.4 µM [falling, single point]"
Cc1cc2ncn(CCOc3ccccc3)c2cc1C,"35.5 µM [falling, single point]",–

# An excerpt from above in order of molar mass, smallest number first:
Compound,AC50 [1],AC50 [2]
CCNc1nc(NC(C)C)nc(OCC)n1,"32.6 µM [rising, single point]",–
Cc1cc2c3c(c1)C(C)CC(C)(C)N3C(=O)C2=O (configuration not stated),"17.8 µM [rising, single point]","22.4 µM [falling, single point]"
Cc1cc2ncn(CCOc3ccccc3)c2cc1C,"35.5 µM [falling, single point]",–
Cc1ccc(N2N=C(C(=O)O)CCC2=O)cc1Cl,"3.55 µM [falling, single point]",–
Cc1ccccc1-c1nc(C#N)c(N2CCC(C)CC2)o1,"15.8 µM [rising, partial curve, poor fit]",–
CCOC(=O)Nc1ccc(S(=O)(=O)N(C)C(C)C)cc1,"29.1 µM [rising, single point]",–
O=[N+]([O-])c1cccc(NC(=S)NCCc2ccccc2)c1,"32.6 µM [falling, single point]",–
C=CCNc1nc(Nc2ccc(OC)cc2OC)nc(OCC)n1,"0.447 µM [rising, full curve, poor fit]",–
O=C(Nc1ccc(Cl)cn1)c1cccc(OCc2ccccc2)c1,–,"17.8 µM [falling, partial curve, poor fit]"
Cc1ccccc1C(=O)Nc1nc2n(n1)C(c1ccccc1)CC(=O)N2 (configuration not stated),"29.1 µM [falling, single point]",–
Cn1c(N)c(C(=O)COC(=O)CCC2CCCCC2)c(=O)n(C)c1=O,–,"17.8 µM [rising, partial curve, poor fit]"
O=C(Nc1ccc(Cl)cc1)c1cccc(N2C(=O)C3C4CCC(C4)C3C2=O)c1 (configuration not stated),"25.9 µM [falling, partial curve]",–
COc1cc(NC(=O)CSc2nnc(NC(C)C)s2)cc(OC)c1OC,"2.82 µM [rising, full curve]",–
C/C(=N\NC(=O)c1c(-c2ccccc2Cl)noc1C)c1cccc(NC(=O)C(C)C)c1,"1.3 µM [rising, partial curve, poor fit]",–
Cc1nc(C)c(C(=O)N(c2ccc(C)c(C)c2)C(C(=O)NCc2ccco2)c2ccccc2)s1 (configuration not stated),"18.4 µM [falling, single point]",–

# Remaining list, next part

Compound,AC50 [1],AC50 [2]
Fc1ccc(Cn2c(SCc3ccc(F)c(C(F)(F)F)c3)nnc2C(F)(F)F)cc1,"35.5 µM [falling, single point]",–
O=C(Nc1nnc(-c2ccc(F)cc2)o1)c1cc(Cl)sc1Cl,"4.61 µM [falling, full curve]",–
COCCCNC(=S)NNC(=S)Nc1ccc(F)cc1F,"4.11 µM [falling, full curve, poor fit]",–
COc1ccc(/C=C2\CCc3ccccc3C2=O)cc1O,"35.5 µM [falling, single point]","6.31 µM [falling, full curve]"
COC(=O)c1sc(NC(=O)c2ccc(C)o2)nc1C,"14.6 µM [falling, single point]",–
COc1ccc(NS(=O)(=O)c2c(F)cccc2F)cc1S(=O)(=O)N1CCOCC1,"1.03 µM [falling, partial curve, poor fit]",–
Clc1ccc2nc(CSc3ccccc3)cn2c1,"12.6 µM [falling, single point]",–
O=C(COC(=O)c1cccc(O)c1)c1ccccc1,"16.4 µM [falling, single point]",–
O=C(CSc1nc2ccccc2c(=O)[nH]1)c1ccc(O)c(O)c1,"2.59 µM [rising, partial curve, poor fit]",–
c1ccc2nc(-c3nc4ccccc4[nH]3)ccc2c1,"4.11 µM [falling, full curve]",–
CC(=C1C(=O)c2ccccc2C1=O)N1CCN(C/C=C/c2ccccc2)CC1,"0.13 µM [falling, full curve, poor fit]",–
COc1ccccc1C=NNC(=O)c1ccccc1OCCOc1ccccc1,"10.3 µM [falling, single point]",–
CN=C1SC(CC(=O)Nc2cccc(C(F)(F)F)c2)C(=O)N1C (configuration not stated),"16.4 µM [rising, partial curve]",–
CCOC(=O)c1c2ccccc2[n+]([O-])n1CCO,"29.1 µM [falling, partial curve, poor fit]",–
Cc1cc(-c2n[nH]c(=S)n2/N=C/C(Br)=C/c2ccccc2)n[nH]1,"11.6 µM [falling, partial curve]",–
Cc1c(N=N/C(C(=O)Nc2ccccc2)=C(/O)c2ccccc2)c(=O)n(-c2ccccc2)n1C,"7.08 µM [falling, partial curve, poor fit]",–
c1ccc(-c2nc(-c3ccco3)n3ccccc23)cc1,"25.9 µM [falling, single point]",–
Cc1ccc(NC(=O)CSC(C)C(=O)NCCc2ccccn2)cc1 (configuration not stated),"0.0891 µM [rising, full curve, poor fit]",–
COC(=O)C1=CN(Cc2ccc(OC)cc2)C=C(C(=O)OC)C1c1cccs1,"35.5 µM [falling, partial curve, poor fit]",–
O=C(O)c1cc2cc(Cl)cc(Cl)c2oc1=O,"31.6 µM [rising, single point]",–
COCCC(=O)N1CCc2ccc(NC(=O)c3ccc(C(F)(F)F)cc3)cc2C1,"5.01 µM [rising, partial curve, poor fit]",–
